Screen size: about 330,000 compounds; about 1,000 (0.3%) were called active. The inconclusive results got no clear call from the source; some entries with a clear call stand among them for comparison. Calls come from the whole dose curve; as a rule, active = well fitted inhibition curve with a large enough effect; inconclusive = small, poorly fitted or top-dose-only effect; inactive = no such curve, though single readings can be large or run the other way; tested in mouse RAW 264.7 cells. Potencies of inconclusive entries are doubtful fits and often do not repeat.
Assay: qHTS for Inhibitors of Cell Surface uPA Generation; note: nearly all actives have a fitted effect of over 55% in size
Settings: cell surface uPA generation assay; series mostly up to 38.3 µM
Method in brief: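 RAW 264.7 cells (4000/well) were plated overnight at 37 C and then given compounds in a 1:5 series (up to 38.3 uM final) plus reagent for 24 h. Intracellular ATP was measured by ATP-Lite luminescence and stays elevated when uPA-dependent LF entry is blocked.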
With `Cc1ccc(NC(=O)c2cc(S(=O)(=O)N3CCCC3)cn2C)cc1C` the Potency was inconclusive: 0.02 µM [inhibitor, full curve, poor fit]. For `Nc1ccc(C(=O)Nc2ccc(OC(F)(F)C(F)F)c(NC(=O)c3ccc(N)cc3)c2)cc1`, the Potency was “inactive”. For `CCCCn1c(=N)n(CC(=O)c2ccc(Br)s2)c2ccccc21`, the Potency was inconclusive: 11.2 µM [inhibitor, single point]. With `O=c1cc(O)nc(SCc2ccccc2)n1-c1ccc(Cl)cc1` the Potency was “inactive”. For `CCOCCCNC(=O)c1cc2c(s1)-c1ccccc1SC2`, the Potency was “inactive”. With `CCOC(=O)C1=C(C)N(c2ccc(OC)cc2)C(=O)/C1=C\c1ccc(O)c(OCC)c1` the Potency was inconclusive: 12.6 µM [inhibitor, partial curve, poor fit]. For `CCOc1ccc(N(C)S(=O)(=O)c2ccc(C)c(C(=O)NCCc3ccc(OC)cc3)c2)cc1`, the Potency was “inactive”. For `O=C(CCCOc1ccccc1)Nc1cc(S(=O)(=O)N2CCOCC2)ccc1N1CCOCC1`, the Potency was inconclusive: 0.708 µM [inhibitor, full curve, poor fit]. For `Nc1ccc(C(=O)Nc2ccccc2N)cc1`, the Potency was inconclusive: 7.08 µM [inhibitor, partial curve, poor fit]. With `O=C(Nc1ccc2c(c1)OCO2)Nc1ccccn1` the Potency was inconclusive: 3.98 µM [inhibitor, partial curve, poor fit]. In the case of `Clc1ccc(SCCCCN2CCNCC2)cc1`, the Potency is reported as inconclusive: 12.6 µM [inhibitor, single point]. With `Fc1ccc(-n2nnc(-c3cnc4ccccc4c3)n2)cc1` the Potency was inconclusive: 5.01 µM [inhibitor, partial curve]. For `COc1ccc(C)cc1NC(=O)CCN1CCN(c2ccccc2F)CC1`, the Potency was inconclusive: 0.0079 µM [inhibitor, full curve, poor fit]. For `Cc1cccc(NC(=O)Nc2cccc(Oc3c(F)c(F)c(F)c(F)c3F)c2)c1`, the Potency was inconclusive: 12.6 µM [inhibitor, single point]. With `CCOC(=O)C1CCCN(C2=NC(=O)/C(=C/c3ccc(O)c(OC)c3)S2)C1` (stereo not drawn) the Potency was inconclusive: 6.31 µM [inhibitor, partial curve, poor fit]. In the case of `O=C(Nc1cccc(C(F)(F)F)c1)C1CCN(S(=O)(=O)c2ccc(N3CCCC3=O)cc2)CC1`, the Potency is reported as inconclusive: 10 µM [inhibitor, single point]. For `COc1ccc2[nH]cc(/C=N/NS(=O)(=O)c3ccc(C)cc3)c2c1`, the Potency was inconclusive: 6.31 µM [inhibitor, partial curve]. For `C[C@]12C=CC(=O)C=C1CC[C@@H]1C2=CC[C@]2(C)[C@@H](C(=O)CN3CCN(c4cc(N5CCCC5)nc(N5CCCC5)n4)CC3)CC[C@@H]12`, the Potency was inconclusive: 8.91 µM [inhibitor, partial curve]. For `CCCCNc1c(-c2ccc(OC)c(Sc3ccc(OC)cc3)c2)nc2ccccn12`, the Potency was inconclusive: 11.2 µM [inhibitor, single point]. In the case of `CC1CCc2c(sc(NC(=O)c3cccs3)c2C(=O)O)C1` (stereo not drawn), the Potency is reported as active: 3.98 µM. With `CC(=O)c1sc(NC(=O)c2ccc(Br)o2)nc1C` the Potency was inconclusive: 1.78 µM [inhibitor, partial curve, poor fit]. With `O=C(CCCN1C(=O)/C(=C/c2ccccc2Cl)SC1=S)NNC(=O)c1ccccc1` the Potency was inconclusive: 28.2 µM [inhibitor, single point]. For `CCN(CC)c1ccc(/C=N/NC(=O)Cc2cccs2)cc1`, the Potency was “inactive”. For `O=C(NCc1ccccc1)C1=C[C@@H](c2csc3ccccc23)C[C@@H](OCc2ccc(CO)cc2)O1`, the Potency was inconclusive: 28.2 µM [inhibitor, single point]. For `O=C(c1ccc(-c2ccc([N+](=O)[O-])cc2)o1)N1CCCCCCC1`, the Potency was inconclusive: 6.31 µM [inhibitor, partial curve, poor fit]. With `Cc1ccc(-c2nc3ccccn3c2C=O)cc1` the Potency was inconclusive: 12.6 µM [inhibitor, single point]. In the case of `Clc1ccc(C2=NCCn3nc4ccccc4c32)cc1`, the Potency is reported as inconclusive: 7.08 µM [inhibitor, single point]. With `CCc1[nH]nc(C(=O)NC2CCCc3c2cnn3-c2cc(C)cc(C)c2)c1C` (stereo not drawn) the Potency was inconclusive: 10 µM [inhibitor, single point]. With `O=C(CSc1ncn[nH]1)c1ccco1` the Potency was “inactive”. In the case of `O=C1/C(=C/c2ccccc2Cl)SC(=S)N1CCCC(=O)N(CCO)c1ccccc1`, the Potency is reported as inconclusive: 5.62 µM [inhibitor, partial curve, poor fit]. With `CCCCn1c(SCC(=O)NC(=O)Cc2ccccc2)nc2ccccc2c1=O` the Potency was “inactive”. In the case of `C/C(Cn1nnc([N+](=O)[O-])n1)=N\NC(=O)c1ccc(O)cc1`, the Potency is reported as inconclusive: 12.6 µM [inhibitor, single point]. For `COc1cccc(-c2nnc(NC(=O)c3ccco3)s2)c1`, the Potency was inconclusive: 8.91 µM [inhibitor, partial curve]. In the case of `Cc1cc(NC(=O)CSc2nc3ccccc3c(=O)n2C(C)c2ccccc2)no1` (stereo not drawn), the Potency is reported as “inactive”. In the case of `Cc1ccc(S(=O)(=O)NCC(=O)OCc2cc(=O)oc3cc(C)ccc23)cc1`, the Potency is reported as inconclusive: 31.6 µM [inhibitor, single point]. For `COc1cccc([C@@H]2Oc3ccc(OC)cc3C(=O)[C@H]2O)c1`, the Potency was inconclusive: 10 µM [inhibitor, single point]. In the case of `COc1c(OC)c(O)c2c(=O)c(O)c(-c3ccccc3)oc2c1OC`, the Potency is reported as inconclusive: 11.2 µM [inhibitor, single point]. For `COc1cc(C(=O)OCCc2cc3ccccc3c(=O)o2)cc(OC)c1OC`, the Potency was active: 1.12 µM. For `Cc1ccc(S(=O)(=O)N2CCCCC2)cc1NC(=O)c1cccs1`, the Potency was inconclusive: 7.08 µM [inhibitor, single point]. With `O=C(CNS(=O)(=O)c1ccccc1)NCc1cccnc1` the Potency was inconclusive: 1 µM [inhibitor, partial curve, poor fit]. For `Cc1nc2cc(F)ccc2n1C1CCN(C(=O)c2c(F)cccc2F)CC1`, the Potency was “inactive”. For `Oc1c(CNc2ccccc2)cc(COCc2ccccc2)c2cccnc12`, the Potency was inconclusive: 12.6 µM [inhibitor, single point]. In the case of `COc1ccc(-c2cc3ccccc3cn2)cc1`, the Potency is reported as inconclusive: 10 µM [inhibitor, partial curve, poor fit]. With `Cc1ccc(-c2ccc(C(=O)Nc3ccccc3)o2)c2ccccc12` the Potency was “inactive”. With `CCCN1CCC(=O)NC1=S` the Potency was “inactive”. For `NNC(=O)[C@@H]1C[C@@H]1c1ccccc1`, the Potency was inconclusive: 0.0398 µM [inhibitor, full curve, poor fit]. In the case of `CCCc1nnc(NC(=O)c2nc(S(=O)(=O)Cc3cccc(C)c3)ncc2Cl)s1`, the Potency is reported as inconclusive: 12.6 µM [inhibitor, single point]. In the case of `CCN(CC)CCNc1nc2nonc2nc1NCCN(CC)CC`, the Potency is reported as inconclusive: 1.26 µM [inhibitor, single point]. In the case of `N=c1c(C(=O)NCC2CCCO2)cc2c(=O)n3ccccc3nc2n1Cc1ccc(Cl)cc1` (stereo not drawn), the Potency is reported as inconclusive: 12.6 µM [inhibitor, single point]. In the case of `CN=Cc1nc(-c2ccccc2)oc1O`, the Potency is reported as “inactive”. For `Cc1oncc1C(=O)Nc1ccc2ccccc2c1`, the Potency was inconclusive: 20 µM [inhibitor, single point]. In the case of `S=C(Nc1ccccc1)N1CCOCCOCCN(C(=S)Nc2ccccc2)CCOCCOCC1`, the Potency is reported as “inactive”. In the case of `CCCSC(=S)NC1CCS(=O)(=O)C1` (stereo not drawn), the Potency is reported as inconclusive: 7.94 µM [inhibitor, partial curve]. For `O=C(O)c1cccc(NC(=O)c2ccccc2)c1`, the Potency was “inactive”. For `CCOc1ccc(-c2ccc(SCC(=O)NC3CCCCC3)nn2)cc1`, the Potency was inconclusive: 0.562 µM [inhibitor, full curve, poor fit]. In the case of `CCOC(=O)C1(CCOc2ccccc2)CCN(Cc2ccc(C#CCCO)cc2)CC1`, the Potency is reported as inconclusive: 11.2 µM [inhibitor, single point]. With `COc1ccc(-c2nc3ncccn3c2Br)cc1` the Potency was inconclusive: 7.94 µM [inhibitor, partial curve, poor fit]. In the case of `Cc1ccc(CCC(=O)Nc2ccc(N(C)C)cc2)o1`, the Potency is reported as inconclusive: 11.2 µM [inhibitor, partial curve, poor fit]. In the case of `COc1cc(-c2cc(OC)c3c(C)oc(C)c3c(=O)c2)ccc1O`, the Potency is reported as inconclusive: 7.94 µM [inhibitor, single point]. For `CCCCCc1ccc(-c2cn(CCCOCc3ccccc3)nn2)cc1`, the Potency was inconclusive: 12.6 µM [inhibitor, single point]. In the case of `CCCc1nnc(NC(=O)CCC(=O)NC2CCCC2)s1`, the Potency is reported as inconclusive: 12.6 µM [inhibitor, single point]. In the case of `COc1cc(S(=O)(=O)Nc2ccccc2N2CCCCC2)ccc1NC(C)=O`, the Potency is reported as inconclusive: 12.6 µM [inhibitor, single point]. For `COc1cccc(/C=N/Nc2ccc(C(=O)O)cc2)c1O`, the Potency was inconclusive: 10 µM [inhibitor, single point]. In the case of `CC(=O)N1CCc2cc(S(=O)(=O)CCC(=O)N3CCc4ccccc4C3)ccc21`, the Potency is reported as “inactive”. In the case of `NS(=O)(=O)c1ccc(NC(=S)N2CCC(Cc3ccccc3)CC2)cc1`, the Potency is reported as “inactive”. In the case of `CC(C)c1ccc(N(CC(=O)NCc2ccc(F)cc2)C(=O)c2csnn2)cc1`, the Potency is reported as inconclusive: 7.94 µM [inhibitor, single point]. For `Cc1noc(/C=C/c2nn(C)cc2Cl)c1[N+](=O)[O-]`, the Potency was active: 4.47 µM. For `Cc1ccc(S(=O)(=O)NCC2CCC(C(=O)N3CCN(C)CC3)CC2)cc1` (stereo not drawn), the Potency was inconclusive: 8.91 µM [inhibitor, single point].

From PubChem BioAssay AID540303 (National Center for Advancing Translational Sciences (NCATS), 2011)
Potency is the fitted concentration of half-maximal effect.
